Measurements as given in article PMC7199855, “GRAF2, WDR44, and MICAL1 mediate Rab8/10/11–dependent export of E-cadherin, MMP14, and CFTR ΔF508” (The Journal of Cell Biology, 2020).
No constants are given. Whether binding was seen depends on the method and setting. Binding seen in cells or lysates may run through a third protein. Some binding calls cover weakened binding; strength is not graded here. For part of these data: Where a sequence is shown, tags or fusion partners need not be part of it.

Assays:
[1] = molecular target: T1, endogenous WDR44 (HeLa) (human (endogenous in HeLa)) (UniProt Q5JSH3); assay: co-IP; endogenous proteins, HeLa; resuspended pellet of a 1% Triton X-100 lysate (20 mM Hepes pH 7.4, 150 mM NaCl, 2 mM EDTA); IP with α-GRAF2 or α-WDR44; Western blot
T1 sequence: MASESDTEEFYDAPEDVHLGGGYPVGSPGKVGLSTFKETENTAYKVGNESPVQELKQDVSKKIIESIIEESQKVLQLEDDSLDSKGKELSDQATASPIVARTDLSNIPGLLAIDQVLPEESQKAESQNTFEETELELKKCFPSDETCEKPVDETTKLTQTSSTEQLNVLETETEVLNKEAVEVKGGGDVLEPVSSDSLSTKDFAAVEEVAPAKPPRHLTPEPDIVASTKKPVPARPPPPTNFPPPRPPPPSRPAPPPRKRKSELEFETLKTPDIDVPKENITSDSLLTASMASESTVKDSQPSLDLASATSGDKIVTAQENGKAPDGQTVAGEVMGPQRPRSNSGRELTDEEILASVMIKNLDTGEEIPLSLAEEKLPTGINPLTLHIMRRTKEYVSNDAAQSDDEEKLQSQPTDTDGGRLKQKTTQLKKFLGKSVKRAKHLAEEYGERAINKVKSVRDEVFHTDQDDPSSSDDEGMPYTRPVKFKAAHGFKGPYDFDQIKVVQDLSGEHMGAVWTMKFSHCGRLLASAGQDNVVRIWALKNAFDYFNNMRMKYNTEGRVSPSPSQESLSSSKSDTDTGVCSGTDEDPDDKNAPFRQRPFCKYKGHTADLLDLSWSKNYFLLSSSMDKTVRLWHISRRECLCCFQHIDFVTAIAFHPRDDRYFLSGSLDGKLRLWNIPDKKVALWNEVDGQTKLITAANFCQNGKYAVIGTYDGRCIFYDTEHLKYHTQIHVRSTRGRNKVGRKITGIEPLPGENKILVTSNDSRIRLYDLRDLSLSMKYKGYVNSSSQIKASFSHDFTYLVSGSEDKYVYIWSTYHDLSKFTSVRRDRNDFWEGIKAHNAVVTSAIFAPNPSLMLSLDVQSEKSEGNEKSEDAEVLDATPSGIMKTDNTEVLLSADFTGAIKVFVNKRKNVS

[2] = molecular target: T2, endogenous GRAF2 (human cells) (human (endogenous in HeLa and SH-SY5Y)) (UniProt A1A4S6); assay: co-IP; endogenous proteins, SH-SY5Y lysate (20 mM Hepes pH 7.4, 150 mM NaCl, 2 mM EDTA, 1% IGEPAL CA-630); IP with α-GRAF2; Western blot
T2 sequence: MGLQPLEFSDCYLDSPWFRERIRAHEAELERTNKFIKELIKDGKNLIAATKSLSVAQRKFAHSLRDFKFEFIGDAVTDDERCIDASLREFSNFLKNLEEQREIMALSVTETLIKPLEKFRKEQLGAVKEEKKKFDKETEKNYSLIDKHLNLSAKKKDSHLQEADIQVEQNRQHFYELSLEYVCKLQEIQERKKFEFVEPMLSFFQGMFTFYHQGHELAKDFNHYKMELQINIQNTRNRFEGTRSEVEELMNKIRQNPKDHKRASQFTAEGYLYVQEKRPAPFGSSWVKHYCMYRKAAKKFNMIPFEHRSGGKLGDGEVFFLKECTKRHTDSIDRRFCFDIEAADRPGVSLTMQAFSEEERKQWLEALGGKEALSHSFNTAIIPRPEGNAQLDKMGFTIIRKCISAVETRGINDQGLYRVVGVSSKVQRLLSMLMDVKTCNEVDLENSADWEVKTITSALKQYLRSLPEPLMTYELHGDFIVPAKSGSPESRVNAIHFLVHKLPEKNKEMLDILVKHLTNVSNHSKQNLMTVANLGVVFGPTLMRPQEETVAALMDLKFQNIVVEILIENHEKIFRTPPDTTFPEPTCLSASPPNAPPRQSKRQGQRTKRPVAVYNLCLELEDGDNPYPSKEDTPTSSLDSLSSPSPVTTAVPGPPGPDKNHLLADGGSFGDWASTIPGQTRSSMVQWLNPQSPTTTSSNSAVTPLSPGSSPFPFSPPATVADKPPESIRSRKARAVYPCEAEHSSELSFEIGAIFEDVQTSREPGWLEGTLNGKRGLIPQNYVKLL

[3] = molecular target: T3, GST–GRAF1 SH3 (human) (UniProt Q9UNA1); assay: pull-down; GST-SH3 on glutathione sepharose beads with HeLa lysate, 30 min 4°C; 20 mM Hepes pH 7.4, 150 mM NaCl, 2 mM EDTA, 1% IGEPAL CA-630, 1 mM DTT; Western blot with α-WDR44 or α-MICAL1; only the target purified
T3 sequence: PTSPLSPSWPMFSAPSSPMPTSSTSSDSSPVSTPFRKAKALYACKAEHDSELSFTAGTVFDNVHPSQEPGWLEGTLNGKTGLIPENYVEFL

B1: endogenous GRAF2 (human cells) (protein, UniProt A1A4S6 1-786)
chain: MGLQPLEFSDCYLDSPWFRERIRAHEAELERTNKFIKELIKDGKNLIAATKSLSVAQRKFAHSLRDFKFEFIGDAVTDDERCIDASLREFSNFLKNLEEQREIMALSVTETLIKPLEKFRKEQLGAVKEEKKKFDKETEKNYSLIDKHLNLSAKKKDSHLQEADIQVEQNRQHFYELSLEYVCKLQEIQERKKFEFVEPMLSFFQGMFTFYHQGHELAKDFNHYKMELQINIQNTRNRFEGTRSEVEELMNKIRQNPKDHKRASQFTAEGYLYVQEKRPAPFGSSWVKHYCMYRKAAKKFNMIPFEHRSGGKLGDGEVFFLKECTKRHTDSIDRRFCFDIEAADRPGVSLTMQAFSEEERKQWLEALGGKEALSHSFNTAIIPRPEGNAQLDKMGFTIIRKCISAVETRGINDQGLYRVVGVSSKVQRLLSMLMDVKTCNEVDLENSADWEVKTITSALKQYLRSLPEPLMTYELHGDFIVPAKSGSPESRVNAIHFLVHKLPEKNKEMLDILVKHLTNVSNHSKQNLMTVANLGVVFGPTLMRPQEETVAALMDLKFQNIVVEILIENHEKIFRTPPDTTFPEPTCLSASPPNAPPRQSKRQGQRTKRPVAVYNLCLELEDGDNPYPSKEDTPTSSLDSLSSPSPVTTAVPGPPGPDKNHLLADGGSFGDWASTIPGQTRSSMVQWLNPQSPTTTSSNSAVTPLSPGSSPFPFSPPATVADKPPESIRSRKARAVYPCEAEHSSELSFEIGAIFEDVQTSREPGWLEGTLNGKRGLIPQNYVKLL
With B1 the binding [1] was “binds”.

B2: endogenous MICAL1 (human cells) (protein, UniProt Q8TDZ2 1-1067)
chain: MASPTSTNPAHAHFESFLQAQLCQDVLSSFQELCGALGLEPGGGLPQYHKIKDQLNYWSAKSLWTKLDKRAGQPVYQQGRACTSTKCLVVGAGPCGLRVAVELALLGARVVLVEKRTKFSRHNVLHLWPFTIHDLRALGAKKFYGRFCTGTLDHISIRQLQLLLLKVALLLGVEIHWGVTFTGLQPPPRKGSGWRAQLQPNPPAQLANYEFDVLISAAGGKFVPEGFKVREMRGKLAIGITANFVNGRTVEETQVPEISGVARIYNQSFFQSLLKATGIDLENIVYYKDDTHYFVMTAKKQCLLRLGVLRQDWPDTNRLLGSANVVPEALQRFTRAAADFATHGKLGKLEFAQDAHGQPDVSAFDFTSMMRAESSARVQEKHGARLLLGLVGDCLVEPFWPLGTGVARGFLAAFDAAWMVKRWAEGAESLEVLAERESLYQLLSQTSPENMHRNVAQYGLDPATRYPNLNLRAVTPNQVRDLYDVLAKEPVQRNNDKTDTGMPATGSAGTQEELLRWCQEQTAGYPGVHVSDLSSSWADGLALCALVYRLQPGLLEPSELQGLGALEATAWALKVAENELGITPVVSAQAVVAGSDPLGLIAYLSHFHSAFKSMAHSPGPVSQASPGTSSAVLFLSKLQRTLQRSRAKENAEDAGGKKLRLEMEAETPSTEVPPDPEPGVPLTPPSQHQEAGAGDLCALCGEHLYVLERLCVNGHFFHRSCFRCHTCEATLWPGGYEQHPGDGHFYCLQHLPQTDHKAEGSDRGPESPELPTPSENSMPPGLSTPTASQEGAGPVPDPSQPTRRQIRLSSPERQRLSSLNLTPDPEMEPPPKPPRSCSALARHALESSFVGWGLPVQSPQALVAMEKEEKESPFSSEEEEEDVPLDSDVEQALQTFAKTSGTMNNYPTWRRTLLRRAKEEEMKRFCKAQTIQRRLNEIEAALRELEAEGVKLELALRRQSSSPEQQKKLWVGQLLQLVDKKNSLVAEEAELMITVQELNLEEKQWQLDQELRGYMNREENLKTAADRQAEDQVLRKLVDLVNQRDALIRFQEERRLSELALGTGAQG
For B2, the binding [2] was “binds” and the binding [3] was “binds”.
